PubChem BioAssay AID1259308 | NCATS – 2017
The deposit covers about 59,000 reagents; shown is a random part of them. Over the whole deposit, about 1,510 (2.6%) are marked active. 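Calls use total luciferase alone and ignore viability, so some active siRNAs may act by altering cell number.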 Reagents against one gene are numbered here. Further read-outs or replicates are left out here.

- Test: 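Genes whose loss raises luciferase production in HEK293 cells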 (primary screen)
- Cells: human HEK293 embryonic kidney cells stably expressing firefly luciferase (HEK-CMV-Luc2-Hygro)
- Knock-down reagent: single siRNA against human genes, 0.8 pmol siRNA per well
- Timing: 72 h
- Detection: 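Luciferase light (ONE-Glo) measured on one replicate plate set and viability (CellTiter-Glo) on the other, scaled to a negative control siRNA, with robust z-scores and luciferase per cell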
- Direction: total luciferase, z-score and total luciferase, % of control: higher = more reporter protein produced
- Call rule: 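An siRNA counts as active if its total luciferase robust z-score exceeds 3; genes with two or more such siRNAs out of three were retested with fresh siRNAs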
- Meaning of the calls: active = raised luciferase; inactive = no rise

Depletion of KCNK18 (potassium two pore domain channel subfamily K member 18) #1 gave: total luciferase, z-score -0.661; total luciferase, % of control 68.7; inactive.
With knock-down of KCNK18 (potassium two pore domain channel subfamily K member 18) #2, the screen gave total luciferase, z-score 0.169; total luciferase, % of control 85.2; inactive.
KCNK18 (potassium two pore domain channel subfamily K member 18) #3 gave total luciferase, z-score -0.135; total luciferase, % of control 79.2; inactive.
UBOX5 (U-box domain containing 5) #1 showed total luciferase, z-score -0.245; total luciferase, % of control 77; inactive.
Against UBOX5 (U-box domain containing 5) #2, the entry reads total luciferase, z-score 0.827; total luciferase, % of control 98.3; inactive.
Knock-down of UBOX5 (U-box domain containing 5) #3 gave: total luciferase, z-score 2.23; total luciferase, % of control 126; inactive.
Knock-down of PLB1 (phospholipase B1) #1 gave: total luciferase, z-score -0.0195; total luciferase, % of control 81.5; inactive.
After knock-down of PLB1 (phospholipase B1) #2, the screen gave total luciferase, z-score 1.13; total luciferase, % of control 104; inactive.
For PLB1 (phospholipase B1) #3, the values are total luciferase, z-score -0.084; total luciferase, % of control 80.2; inactive.
With knock-down of POLL (DNA polymerase lambda) #1 the results were total luciferase, z-score -0.199; total luciferase, % of control 77.9; inactive.
Against POLL (DNA polymerase lambda) #2, the entry reads total luciferase, z-score 1.54; total luciferase, % of control 112; inactive.
POLL (DNA polymerase lambda) #3 showed total luciferase, z-score -1.04; total luciferase, % of control 61.1; inactive.
Depletion of ZFP82 (ZFP82 zinc finger protein) #1 resulted in: total luciferase, z-score 0.00804; total luciferase, % of control 82; inactive.
Silencing of ZFP82 (ZFP82 zinc finger protein) #2 gave: total luciferase, z-score 0.731; total luciferase, % of control 96.4; inactive.
Depletion of ZFP82 (ZFP82 zinc finger protein) #3 gave: total luciferase, z-score 1.58; total luciferase, % of control 113; inactive.
With knock-down of TTC23 (tetratricopeptide repeat domain 23) #1, the record shows total luciferase, z-score 3.31; total luciferase, % of control 148; active.
For TTC23 (tetratricopeptide repeat domain 23) #2, the entry reads total luciferase, z-score 0.642; total luciferase, % of control 94.7; inactive.
Knock-down of TTC23 (tetratricopeptide repeat domain 23) #3 came out at: total luciferase, z-score -0.657; total luciferase, % of control 68.8; inactive.
For CNPY2 (canopy FGF signaling regulator 2) #1, the entry reads total luciferase, z-score 0.817; total luciferase, % of control 98.1; inactive.
Against CNPY2 (canopy FGF signaling regulator 2) #2 the deposit lists total luciferase, z-score 0.338; total luciferase, % of control 88.6; inactive.
Against CNPY2 (canopy FGF signaling regulator 2) #3 the deposit lists total luciferase, z-score 0.145; total luciferase, % of control 84.8; inactive.
ATP2B3 (ATPase plasma membrane Ca2+ transporting 3) #1 gave total luciferase, z-score 1.35; total luciferase, % of control 109; inactive.
Against ATP2B3 (ATPase plasma membrane Ca2+ transporting 3) #2, the entry reads total luciferase, z-score -0.989; total luciferase, % of control 62.2; inactive.
With knock-down of ATP2B3 (ATPase plasma membrane Ca2+ transporting 3) #3 the results were total luciferase, z-score -0.193; total luciferase, % of control 78; inactive.
After knock-down of SNF8 (SNF8 subunit of ESCRT-II) #1, the screen gave total luciferase, z-score -0.632; total luciferase, % of control 69.3; inactive.
Depletion of SNF8 (SNF8 subunit of ESCRT-II) #2 gave: total luciferase, z-score 1.88; total luciferase, % of control 119; inactive.
SNF8 (SNF8 subunit of ESCRT-II) #3 showed total luciferase, z-score -0.872; total luciferase, % of control 64.5; inactive.
With knock-down of PIEZO2 (piezo type mechanosensitive ion channel component 2) #1, the record shows total luciferase, z-score -0.244; total luciferase, % of control 77; inactive.
For PIEZO2 (piezo type mechanosensitive ion channel component 2) #2 the deposit lists total luciferase, z-score 0.89; total luciferase, % of control 99.6; inactive.
For PIEZO2 (piezo type mechanosensitive ion channel component 2) #3, the values are total luciferase, z-score -1.27; total luciferase, % of control 56.7; inactive.
After knock-down of PIEZO2 (piezo type mechanosensitive ion channel component 2) #4, the record shows total luciferase, z-score -0.107; total luciferase, % of control 79.8; inactive.
For PIEZO2 (piezo type mechanosensitive ion channel component 2) #5, the values are total luciferase, z-score -0.521; total luciferase, % of control 71.5; inactive.
PIEZO2 (piezo type mechanosensitive ion channel component 2) #6 gave total luciferase, z-score -0.827; total luciferase, % of control 65.4; inactive.
Against MYCLP2 (MYCL pseudogene 2) #1 the deposit lists total luciferase, z-score 2.71; total luciferase, % of control 136; inactive.
Knock-down of MYCLP2 (MYCL pseudogene 2) #2 came out at: total luciferase, z-score 0.794; total luciferase, % of control 97.7; inactive.
Depletion of MYCLP2 (MYCL pseudogene 2) #3 came out at: total luciferase, z-score 1.62; total luciferase, % of control 114; inactive.
Silencing of BAG4 (BAG cochaperone 4) #1 came out at: total luciferase, z-score 0.543; total luciferase, % of control 92.7; inactive.
BAG4 (BAG cochaperone 4) #2 showed total luciferase, z-score 4.53; total luciferase, % of control 172; active.
After knock-down of BAG4 (BAG cochaperone 4) #3 the results were total luciferase, z-score 0.0117; total luciferase, % of control 82.1; inactive.
DYNC2H1 (dynein cytoplasmic 2 heavy chain 1) #1 showed total luciferase, z-score -0.0379; total luciferase, % of control 81.1; inactive.
With knock-down of DYNC2H1 (dynein cytoplasmic 2 heavy chain 1) #2, the record shows total luciferase, z-score -0.655; total luciferase, % of control 68.9; inactive.
DYNC2H1 (dynein cytoplasmic 2 heavy chain 1) #3 gave total luciferase, z-score -2.4; total luciferase, % of control 34.1; inactive.

Copied from the list.
Result for CNPY2 (canopy FGF signaling regulator 2) #2 under “Call”: inactive
TTC23 (tetratricopeptide repeat domain 23) #2, Call → inactive
Under “total luciferase, % of control”, PLB1 (phospholipase B1) #1 shows 81.5
Result of SNF8 (SNF8 subunit of ESCRT-II) #2 in “Call”: inactive
Value for PIEZO2 (piezo type mechanosensitive ion channel component 2) #4 in “total luciferase, z-score”: -0.107
Under “Call”, POLL (DNA polymerase lambda) #2 is entered as inactive
